Assay results taken from publication PMC7819943, “Rice protein-binding microarrays: a tool to detect cis-acting elements near promoter regions in rice”.
The list shows a part of the results.

Amino acid sequences for entries named in this document (tags omitted).
UniProt Q0JBA9, entry or part of it: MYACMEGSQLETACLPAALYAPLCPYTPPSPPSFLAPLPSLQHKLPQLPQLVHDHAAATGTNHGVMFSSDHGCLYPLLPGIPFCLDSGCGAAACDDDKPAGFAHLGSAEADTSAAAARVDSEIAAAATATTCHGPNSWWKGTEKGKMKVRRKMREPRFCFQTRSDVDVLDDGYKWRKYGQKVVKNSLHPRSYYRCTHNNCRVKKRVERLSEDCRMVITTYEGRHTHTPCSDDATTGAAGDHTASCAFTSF

Target: OsWRKY34 (Oryza sativa, UniProt Q0JBA9 1-250)
Assay: protein-binding microarray (RPBM); PBS, 2% BSA, 51.3 ng/ul salmon testes DNA, 50 uM zinc acetate, 200 nM TF, 25 C, 1 h; high values mean tight binding
Settings: protein: recombinant; tags: N-terminal polyhistidine and DsRed monomer fusion (pET32a); label: CyDye5-dUTP incorporated in the synthesized complementary strand; 3' TTTTT single-stranded linker to array surface; dsDNA, one strand shown
Method in brief: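 For the binding signal, per-feature fluorescence intensity was read in arbitrary units on an Axon 4000B scanner. Before scanning, a 2% BSA-blocked custom Agilent array made double-stranded with Cy5-dUTP was washed after 1 h at 25 °C with 200 nM protein and 50 µM zinc acetate. The proteins were Ni–NTA-purified transcription factors with N-terminal polyhistidine and DsRed fusions, expressed in E. coli BL21-CodonPlus.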

| Sequence | binding signal |
| --- | --- |
| GTGACGTGGCTTGGGTTGATTTACTAGAGTAGTATTTTTTCGGAGTCACCTAGTGCAG | 8480 fluorescence intensity (a.u.) |
| AGATTCAACTCCTACTCTTCGATTTCAATTGCCCATTAGACGGAGTCACCTAGTGCAG | 10800 fluorescence intensity (a.u.) |
| TATTTGGCTGCGCCGTTACCCACCGTTACGACTAAAAATGCGGAGTCACCTAGTGCAG | 8220 fluorescence intensity (a.u.) |
| ATGGCTTCATCGATCATGGGTCCCTCATGTCCTTCGCTTTCGGAGTCACCTAGTGCAG | 8610 fluorescence intensity (a.u.) |
| CATCCATGGCCCCAACCTAGCTAGTGCGTGTTGTGTTCTTCGGAGTCACCTAGTGCAG | 8200 fluorescence intensity (a.u.) |
| GTGCCACTGTACTATTGTCGTATACTATTTCTTTCTTTTCCGGAGTCACCTAGTGCAG | 10700 fluorescence intensity (a.u.) |
| ACAGCTATGGCCATTTCCCTGTCTCTGTGGCCGGCCAACTCGGAGTCACCTAGTGCAG | 11100 fluorescence intensity (a.u.) |
| GTGCCTCGGCGACCATAGCGTTTTCTGATGATCCACTGATCGGAGTCACCTAGTGCAG | 8670 fluorescence intensity (a.u.) |
| ACACACATACCCCATACTGCTGCTTCTCTCTGTTTGTTGGCGGAGTCACCTAGTGCAG | 9760 fluorescence intensity (a.u.) |
| TTTGATAGAACTGGTGTCATGTGCAATTCTCCTTTTCTCCCGGAGTCACCTAGTGCAG | 12300 fluorescence intensity (a.u.) |
| CCTCGTCGCCTCATCTCGATCTCGTCGATTCTATCCGAGCCGGAGTCACCTAGTGCAG | 11200 fluorescence intensity (a.u.) |
| GCTCTACGGTTGCTCAGCTTTGGAGTTCCTTGACCTATCCCGGAGTCACCTAGTGCAG | 8990 fluorescence intensity (a.u.) |
| TTGATTTCACCTGTAGGATTGCTAGTCACAACTTCTCCTTCGGAGTCACCTAGTGCAG | 10600 fluorescence intensity (a.u.) |
| GGACTCCCGTGGCCTCCCGCACCGCCGCATCCCGTCCATCCGGAGTCACCTAGTGCAG | 10700 fluorescence intensity (a.u.) |
| CACTAGCTGACGGCCTGACACCTTGGTTCTCTTTCGTTGCCGGAGTCACCTAGTGCAG | 8100 fluorescence intensity (a.u.) |
| CTAGCTGAATCTGACACCATCGCACGCATCTTTCTGTTACCGGAGTCACCTAGTGCAG | 16100 fluorescence intensity (a.u.) |
| GCTGTTTTGTCCATCCTGTTTCTGATATGATTTTATATAGCGGAGTCACCTAGTGCAG | 8700 fluorescence intensity (a.u.) |
| GCCATATTTTACTTGCTGTCGCGTGTTGTGTTGTTGACACCGGAGTCACCTAGTGCAG | 14300 fluorescence intensity (a.u.) |
| GCTCATTCATTTTTGTTTCGATTTGCAGTGATCGTTTCTACGGAGTCACCTAGTGCAG | 9900 fluorescence intensity (a.u.) |
| GTGTTCCTCGCTCTCTTCCCTTTCCTTTTTTTCTCTCTCTCGGAGTCACCTAGTGCAG | 9540 fluorescence intensity (a.u.) |
| AGCGGCGGGGTCGGTGTCGGGTGGTCGCATGGTACAATCTCGGAGTCACCTAGTGCAG | 8820 fluorescence intensity (a.u.) |

| Sequence | binding signal |
| --- | --- |
| GCAGTTTAACTTTGACCAAAGTCAAAATATTTTATAATTTCGGAGTCACCTAGTGCAG | 8930 fluorescence intensity (a.u.) |
| CCTTTTGTCAGTCTAGCCAAAGATCTAGGATCTTCAACACCGGAGTCACCTAGTGCAG | 8100 fluorescence intensity (a.u.) |
| TTCCCCTTTCGGTTGGGTGCTTTGGCTCTGTTGCTCGATTCGGAGTCACCTAGTGCAG | 8820 fluorescence intensity (a.u.) |
| TTAGCATAATGTTGCGCAGGCTTGATACTTGAGGGTTTTTCGGAGTCACCTAGTGCAG | 8430 fluorescence intensity (a.u.) |
| CCGCCAGCGATAGTTTTTTTTTTTGGGGTATGTTTATATACGGAGTCACCTAGTGCAG | 8180 fluorescence intensity (a.u.) |
| AATTCTTCCTGCCTCATAACGCACGAACGCACGTCACGAACGGAGTCACCTAGTGCAG | 8270 fluorescence intensity (a.u.) |
| ATCACACACCTTCTCTGCAAAAATCCCAATCTACCACCGCCGGAGTCACCTAGTGCAG | 9250 fluorescence intensity (a.u.) |
| AAATTCGTCCAAAAACCAAGCTCACCCATGTTTCTGCCCACGGAGTCACCTAGTGCAG | 9490 fluorescence intensity (a.u.) |
| AGTGGAGTTGTTTTTATTATCGAAGTAAATCGTTTACTCGCGGAGTCACCTAGTGCAG | 8140 fluorescence intensity (a.u.) |
| CGGTGATTCGTCTTGTCGCACTTTTCCTGTCTGTAGTGGCCGGAGTCACCTAGTGCAG | 10100 fluorescence intensity (a.u.) |
| ACATGCACGGCTGCTCCGCCTCGCCAAGGACATCGCCGACCGGAGTCACCTAGTGCAG | 8290 fluorescence intensity (a.u.) |
| CCAATCTAGCATTTAAATAGCCCATATTTGTCTAATTTCTCGGAGTCACCTAGTGCAG | 8400 fluorescence intensity (a.u.) |
| TTATTTGTTCCCGTTTTGCCTCTGCTGATTTTGCTGTTGCCGGAGTCACCTAGTGCAG | 8960 fluorescence intensity (a.u.) |
| CCACCTGTCAGTCAGTTGGAGCTTTTTATCTCTCTCTCTCCGGAGTCACCTAGTGCAG | 8680 fluorescence intensity (a.u.) |
| TGGCGTTGCTACTACTACTAATCTCTTATCCGCTTCTTAACGGAGTCACCTAGTGCAG | 8280 fluorescence intensity (a.u.) |
| AGTACCCCTCACCCTGCTCCTCGTCGCTCCACCAAAATCCCGGAGTCACCTAGTGCAG | 8720 fluorescence intensity (a.u.) |
| TTCCACCTTGTAGCTCTGCACAATTTTATTTTCTGTTATCCGGAGTCACCTAGTGCAG | 12000 fluorescence intensity (a.u.) |
| AGGTCAATTTTAGTAATGTTCTTTTGGGGTTCAAAACACACGGAGTCACCTAGTGCAG | 9910 fluorescence intensity (a.u.) |
| CGCCCATCGCCGGCTGCCCCGCCAGCCTCCTCCGCAGTCCCGGAGTCACCTAGTGCAG | 8240 fluorescence intensity (a.u.) |
| TTCTGATATCTGGTCATATTTTTTTGAACAGGTAGCTATTCGGAGTCACCTAGTGCAG | 27000 fluorescence intensity (a.u.) |
| ATAGGCAGTCGCTCGTATACACTCATCTCTGTAAATGTACCGGAGTCACCTAGTGCAG | 8760 fluorescence intensity (a.u.) |
